In article PMC3979746:
These are yes or no findings as the source states them, for the method shown. Binding seen in cells or lysates may run through a third protein. Some entries that bind do so weakly or less than the wild type. Tags and fused reporters may be left off the sequences shown.

Protein sequences, listed by entry. Tags and fused reporters are not part of them. Lines headed by an entry give the natural chain unless they say otherwise; changes in a name come on top. Chains listed by the source or under a name are the forms on record and can include a tag or linker.
UniProt Q8IZP1: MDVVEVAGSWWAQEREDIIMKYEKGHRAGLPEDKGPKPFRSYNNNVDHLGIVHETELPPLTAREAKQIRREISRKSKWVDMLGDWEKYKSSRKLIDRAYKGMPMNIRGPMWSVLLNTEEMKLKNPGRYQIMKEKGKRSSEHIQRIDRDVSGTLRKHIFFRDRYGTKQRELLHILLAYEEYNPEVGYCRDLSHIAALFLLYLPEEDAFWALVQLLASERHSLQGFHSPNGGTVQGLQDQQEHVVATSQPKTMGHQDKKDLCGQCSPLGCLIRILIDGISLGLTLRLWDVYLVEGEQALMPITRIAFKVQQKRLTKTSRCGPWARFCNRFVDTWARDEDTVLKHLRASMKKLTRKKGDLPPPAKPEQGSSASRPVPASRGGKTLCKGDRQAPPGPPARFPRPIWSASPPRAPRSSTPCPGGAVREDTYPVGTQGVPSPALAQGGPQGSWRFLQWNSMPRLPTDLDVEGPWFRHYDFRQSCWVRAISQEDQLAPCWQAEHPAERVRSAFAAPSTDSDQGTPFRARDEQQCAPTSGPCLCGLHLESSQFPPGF
HA-TBC1D3(Δ286-319) (Q8IZP1, form named): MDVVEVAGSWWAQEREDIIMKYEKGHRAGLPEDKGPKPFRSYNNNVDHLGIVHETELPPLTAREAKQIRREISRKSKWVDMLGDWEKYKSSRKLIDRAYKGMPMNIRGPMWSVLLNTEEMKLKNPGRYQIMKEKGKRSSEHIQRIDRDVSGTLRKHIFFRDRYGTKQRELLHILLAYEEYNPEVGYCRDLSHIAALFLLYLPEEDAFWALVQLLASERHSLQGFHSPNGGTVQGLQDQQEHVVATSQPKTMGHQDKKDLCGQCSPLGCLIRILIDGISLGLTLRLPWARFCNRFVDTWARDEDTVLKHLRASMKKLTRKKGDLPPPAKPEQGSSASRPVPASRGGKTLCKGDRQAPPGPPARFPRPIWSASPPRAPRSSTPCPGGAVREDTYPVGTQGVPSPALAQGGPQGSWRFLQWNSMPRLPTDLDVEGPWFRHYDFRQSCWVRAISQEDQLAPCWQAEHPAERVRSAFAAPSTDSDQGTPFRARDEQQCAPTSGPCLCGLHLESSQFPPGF
HA-TBC1D3(Δ320-353) (Q8IZP1, form named): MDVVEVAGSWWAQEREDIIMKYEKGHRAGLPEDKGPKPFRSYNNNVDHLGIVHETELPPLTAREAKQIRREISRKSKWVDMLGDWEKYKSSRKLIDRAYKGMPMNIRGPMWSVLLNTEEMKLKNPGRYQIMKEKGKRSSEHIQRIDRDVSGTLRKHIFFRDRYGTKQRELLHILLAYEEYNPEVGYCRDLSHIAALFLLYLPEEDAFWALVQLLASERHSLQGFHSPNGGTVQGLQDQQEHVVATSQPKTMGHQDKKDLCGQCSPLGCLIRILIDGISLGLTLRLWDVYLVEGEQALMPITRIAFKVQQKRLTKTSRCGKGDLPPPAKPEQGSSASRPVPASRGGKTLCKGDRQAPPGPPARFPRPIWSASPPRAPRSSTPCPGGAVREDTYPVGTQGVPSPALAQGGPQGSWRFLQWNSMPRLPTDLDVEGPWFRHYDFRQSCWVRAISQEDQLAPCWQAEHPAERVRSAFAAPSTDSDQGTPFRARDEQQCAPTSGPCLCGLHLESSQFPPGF

Target: T1, GST-GGA3(298) (human) (UniProt Q9NZ52)
T1 sequence: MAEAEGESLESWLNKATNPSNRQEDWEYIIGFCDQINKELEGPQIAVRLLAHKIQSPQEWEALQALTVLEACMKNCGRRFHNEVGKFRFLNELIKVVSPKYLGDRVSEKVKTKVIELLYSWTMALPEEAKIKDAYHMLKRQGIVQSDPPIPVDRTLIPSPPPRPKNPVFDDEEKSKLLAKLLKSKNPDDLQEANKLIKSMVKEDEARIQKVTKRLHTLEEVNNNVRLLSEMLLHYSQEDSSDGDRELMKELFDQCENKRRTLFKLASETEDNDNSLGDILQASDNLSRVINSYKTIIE
Assay: pull-down; bacterially purified GST-GGA3(298) or GST on glutathione-Sepharose 4B beads incubated 4 h at 4°C with extracts of SMMC7721 cells transfected with HA-TBC1D3 or internal deletion mutants; anti-HA blot; only the target purified

binding, binds:
HA-tagged TBC1D3 (from UniProt Q8IZP1 1-549)
HA-TBC1D3(Δ286-319) (from UniProt Q8IZP1 1-549)
HA-TBC1D3(Δ320-353) (from UniProt Q8IZP1 1-549)
